Some of the results follow. The main result of the screen is listed elsewhere. These columns were measured beside it and carry no call. Most of these compounds were active or inconclusive in the main read-out, so they are no random draw. Words in brackets tell the shape of the fitted curve; partial curves, single points and poor fits give uncertain potencies.

A short description of this experiment: qHTS Assay for Modulators of Lamin A Splicing. Particulars: HeLa LMNA splicing GFP/RFP minigene ratio, 48 h. The method, boiled down: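 S3 HeLa stable clones carrying a lamin A-EGFP splicing minigene plus DsRed2 were seeded at 600 cells/well in Opti-MEM with 2% FBS, pin-dosed and incubated 48 h at 37°C. Acumen cytometry (488 nm) gave the GFP/RFP total-intensity ratio.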
On the technique in general: In qHTS, concentration-response curves come from the screen itself.

[1] abbreviates: measured here: GFP splicing reporter channel.
The mark [2] stands for this setting: measured here: RFP viability control channel.

The AC50 is the concentration at which the activity in the assay is half-maximal. Regarding `O=C(Nc1ccc(F)c([N+](=O)[O-])c1)c1cccs1`, the AC50 under setting [1] is 35.5 µM [falling, single point].
On to `CCC(c1nnnn1CCOC)N1CCN(C(=O)c2ccco2)CC1` (configuration not stated), for which the AC50 is, setting by setting: under setting [1], 35.5 µM [falling, single point]; under setting [2], 14.1 µM [falling, partial curve].
Turning to `O=C(CCS(=O)(=O)c1ccc(Br)cc1)N1CCN(c2ccc(Cl)cc2)CC1`, the AC50 under setting [2] was 14.1 µM [rising, single point].
`COCCCN1CCN(C2Cc3ccccc3Sc3ccc(Cl)cc32)CC1` (configuration not stated): the AC50 is, setting by setting: under setting [1], 11.2 µM [rising, single point]; under setting [2], 15.8 µM [rising, single point].
As to `Cc1ccc(C(=O)N2c3ccccc3CC2C)o1` (configuration not stated), the AC50 under setting [1] is 2.82 µM [falling, full curve] and the AC50 under setting [2] was 15.8 µM [falling, partial curve].
Regarding `CC(C)OC(=O)C[N+](C)(C)CCN1C(=O)C2C(c3ccccc3)C=CC(c3ccccc3)C2C1=O` (configuration not stated), under setting [2], the AC50 is 7.08 µM [falling, full curve, poor fit].
As to `Cc1sc2ncn(CCn3cnc4sc(C)c(C)c4c3=O)c(=O)c2c1C`, the AC50 under setting [2] was 7.94 µM [rising, partial curve].
`O=S(=O)(c1ccccc1)N1CCN(S(=O)(=O)N2CCCCC2)CC1`: the AC50 was 1.58 µM [falling, partial curve] under setting [1] and 1.26 µM [falling, partial curve] under setting [2].
As for `CC(Oc1ccccc1Br)C(=O)N1CCc2ccccc21` (configuration not stated), the AC50 under setting [2] was 31.6 µM [rising, single point].
In the case of `CCOC(=O)Cc1ccc(NC(=O)c2ccc(C(C)(C)C)cc2)cc1`, the AC50 under setting [1] was 15.8 µM [rising, partial curve] and the AC50 under setting [2] is 11.2 µM [rising, partial curve].
With `Cc1cccc(C(=O)N/N=C/c2cc(Br)c(Br)o2)c1`, the concentration at half-maximal activity (AC50) runs as follows: under setting [1], 20 µM [rising, single point]; under setting [2], 14.1 µM [rising, single point].
On to `CCCN(CCC)C(=O)CSc1nnc2cc(C)c3ccccc3n12`, for which the AC50 under setting [1] was 2 µM [rising, full curve, poor fit].
As for `CCCCOC(=O)Sc1nc2ccccc2o1`, the AC50 under setting [2] was 11.2 µM [rising, partial curve, poor fit].
Take `CCSc1nnc(NC(=O)CSc2nccn2-c2cc(C)cc(C)c2)s1`: the AC50 under setting [2] was 17.8 µM [rising, single point].
As for `O=C1[C@@H]2[C@@H]3C[C@@H]([C@H]4ON=C(c5ccc(Cl)cc5)[C@@H]34)[C@@H]2C(=O)N1c1ccc2c(c1)OCO2`, the AC50 under setting [2] is 11.2 µM [rising, single point].
Take `O=C(/C=C/c1ccc(Cl)cc1)Nc1nc(-c2cccs2)ns1`: under setting [2], the AC50 is 25.1 µM [falling, single point].
On to `Cc1ccc(C(=O)NCC(=O)OC(C)C(=O)Nc2ccc(N(C)C)cc2)s1` (configuration not stated), for which the AC50 under setting [1] was 0.02 µM [falling, full curve, poor fit] and the AC50 under setting [2] is 0.00891 µM [falling, full curve, poor fit].
For `Cn1c(S(=O)(=O)Cc2ccc(Cl)cc2)nc2ccccc21`, the AC50 under setting [1] is 0.0447 µM [falling, partial curve, poor fit].
In the case of `CC(=O)N1CCCc2cc(S(=O)(=O)N(Cc3ccccc3)C(C)C)ccc21`, the AC50 under setting [2] is 1 µM [rising, full curve].
With `CC(C)CCNC(=O)C(CC(C)C)N(Cc1ccc2c(c1)OCO2)C(=O)c1snc(C(N)=O)c1N` (configuration not stated), the AC50 under setting [1] is 35.5 µM [rising, single point].
As to `Cc1ccc(NC(=O)N(CCCN2CCOCC2)Cc2cc3cc4c(cc3[nH]c2=O)OCO4)cc1`, the AC50 under setting [2] was 22.4 µM [rising, single point].
For `CC(C)(C)c1ccc(Cn2nnc3c(=O)[nH]c(C4CCCN(C(=O)Cc5cccs5)C4)nc32)cc1` (configuration not stated), the AC50 reads like this: under setting [1], 25.1 µM [falling, single point]; under setting [2], 25.1 µM [falling, partial curve].
As for `Clc1ccc(OCc2nnc(SCc3nnc(-c4ccccc4)o3)o2)c(Cl)c1`, the AC50 is, setting by setting: under setting [1], 35.5 µM [rising, single point]; under setting [2], 0.1 µM [falling, full curve, poor fit].
As for `COc1cc(/C=N/N=C2/NC(=O)C(CC(=O)O)S2)ccc1OCc1cccc(Cl)c1` (configuration not stated), the AC50 under setting [1] was 35.5 µM [falling, single point].
For `Cc1cc(Cl)ccc1Oc1ccc(C(N)=O)cc1[N+](=O)[O-]`, the concentration at half-maximal activity (AC50) under setting [1] is 11.2 µM [rising, partial curve] and the AC50 under setting [2] is 15.8 µM [rising, partial curve].
With `c1ccc(-c2noc(-c3ccc4ccccc4c3)n2)nc1`, the AC50 under setting [2] is 2.51 µM [rising, single point].
Take `COC(=O)C1=C(C(=O)OC)[C@@H]2N(C)c3ccccc3[C@@]23C[C@@H](C(=O)OC)N(C(=O)CC(C)C)C3=N1`: the AC50 by setting is: under setting [1], 5.62 µM [falling, partial curve, poor fit]; under setting [2], 0.891 µM [falling, partial curve, poor fit].
For `Cc1cccc(NC(=S)NNC(=O)c2ccccc2OC(F)F)c1`, under setting [2], the AC50 was 12.6 µM [rising, single point].
With `Cc1cccc(S(=O)(=O)Nc2ccc(-c3nc4ccc(C)cc4s3)cc2)c1`, the AC50 was 17.8 µM [rising, single point] under setting [1] and 35.5 µM [rising, single point] under setting [2].
As to `CCOP(=O)(OCC)C(NC(=O)Nc1ccc(C)cc1)C(N)=O` (configuration not stated), the AC50 under setting [1] is 0.00631 µM [rising, full curve, poor fit].
As for `Cn1c(C(C#N)C(=O)c2ccco2)nc2ccccc21` (configuration not stated), the AC50 under setting [2] was 0.00447 µM [falling, full curve, poor fit].
As to `Cc1nn(C)cc1S(=O)(=O)Nc1ccc2c(c1)OCCO2`, the AC50 under setting [1] is 11.2 µM [rising, single point].
For `COc1ccccc1CNc1ncnc2cc(Cl)ccc12`, under setting [1], the AC50 was 5.62 µM [falling, single point].
Consider `CN(Cc1cn(C)c2ccccc12)C(=S)Nc1cc(F)cc(F)c1`, for which the AC50 under setting [2] was 22.4 µM [rising, single point].
With `COc1ccc(C(=O)N=c2sc3ccccc3n2C)cc1OC`, the AC50 under setting [1] is 0.00501 µM [rising, full curve, poor fit].
As for `CCC1CCCCN1CC(=O)c1c(C)[nH]c2ccccc12` (configuration not stated), the AC50 is 17.8 µM [rising, partial curve, poor fit] under setting [1] and 12.6 µM [rising, single point] under setting [2].
On to `Cc1cc(C)c2nc(NC(=O)C3CC(=O)N(Cc4ccco4)C3)sc2c1` (configuration not stated), for which the AC50 under setting [2] was 0.178 µM [falling, full curve, poor fit].
As to `CCN1CCc2c(sc(-n3cccc3)c2C(C)NC(=O)Nc2ccccc2C)C1` (configuration not stated), the AC50 under setting [2] is 11.2 µM [rising, single point].
Consider `COc1ccc(C(NC(=O)c2cccnc2)c2cc(Cl)c3cccnc3c2O)cc1OC` (configuration not stated), for which the AC50 was 28.2 µM [falling, single point] under setting [1] and 12.6 µM [falling, single point] under setting [2].
In the case of `COc1ccccc1CNC(=O)c1cc2ccc3ccc(C)[nH]c3c2n1`, the AC50 under setting [1] was 20 µM [rising, single point] and the AC50 under setting [2] was 22.4 µM [rising, single point].
As to `COC(=O)C1=CN(Cc2cccs2)C=C(C(=O)OC)C1c1cccc(Cl)c1`, the AC50 under setting [1] is 31.6 µM [rising, single point].
Turning to `COC(=O)c1ccc(CSc2nnc(CS(=O)Cc3ccc(Br)cc3)n2-c2ccccc2)cc1` (configuration not stated), the AC50 was 11.2 µM [rising, single point] under setting [1] and 14.1 µM [rising, single point] under setting [2].
`CC1CCN(S(=O)(=O)c2cc(Br)cc(C(=O)NC3=NCCS3)c2)CC1`: under setting [1], the AC50 was 12.6 µM [rising, single point].
For the molecule `O=C(Nc1ccc(Cl)cc1)N1CCC(c2nc(-c3ccccc3Cl)no2)CC1`, the AC50 reads like this: under setting [1], 10 µM [rising, partial curve]; under setting [2], 12.6 µM [rising, partial curve].
For the molecule `N#C/C(=C/c1ccc(-c2ccc(Br)cc2)o1)C(=O)NC1CCCCC1`, the AC50 is 35.5 µM [rising, single point] under setting [1] and 35.5 µM [rising, partial curve] under setting [2].
Regarding `CC(C)OC(=O)c1cccc(NC(=O)CSc2nnc(N)s2)c1`, the half-maximal activity concentration (AC50) under setting [2] is 35.5 µM [falling, single point].
Consider `CCCCNC(=O)CSc1nc2ccccc2c(=O)n1C1CCCC1`, for which the AC50 by setting is: under setting [1], 12.6 µM [rising, single point]; under setting [2], 15.8 µM [rising, single point].
Regarding `Cc1cc([N+](=O)[O-])c2[nH]c(C(=O)N/N=C/c3ccccc3C(=O)O)c(-c3ccccc3)c2c1`, the half-maximal activity concentration (AC50) under setting [1] is 35.5 µM [falling, single point] and the concentration at half-maximal activity (AC50) under setting [2] was 35.5 µM [falling, single point].
`COCCn1c(C)cc(/C=N/NC(=O)c2cccnc2)c1C`: the AC50 under setting [2] is 35.5 µM [rising, partial curve, poor fit].
On to `COc1ccc(CCN2C(=O)CC(Cc3ccc(Br)cc3)C2=O)cc1OC` (configuration not stated), for which the AC50 is, setting by setting: under setting [1], 22.4 µM [rising, single point]; under setting [2], 28.2 µM [rising, single point].
Regarding `CC1CN(c2nc3ccccc3nc2C(C#N)C(=O)NC2CCCCC2)CC(C)O1` (configuration not stated), the AC50 under setting [1] is 31.6 µM [rising, single point].
Regarding `N#Cc1cc([N+](=O)[O-])ccc1N1CCCC1`, the AC50 under setting [1] was 10 µM [rising, partial curve, poor fit] and the AC50 under setting [2] is 12.6 µM [rising, partial curve, poor fit].
Take `CN1C(=O)/C(=C/c2ccco2)SC1=Nc1cccc(C(=O)O)c1`: the AC50 under setting [1] was 0.141 µM [falling, partial curve, poor fit] and the AC50 under setting [2] was 11.2 µM [falling, partial curve, poor fit].
In the case of `N#CCCn1c2ccccc2c2nc3ccccc3nc21`, the AC50 under setting [2] was 12.6 µM [rising, partial curve, poor fit].

Source of the values: PubChem BioAssay AID1487 (National Center for Advancing Translational Sciences (NCATS), 2009).
